Source: PubChem BioAssay AID248 (DTP/NCI, 2004)
The list shows only some results of the screen, not a fair sample: it is rich in T/C values a quarter to a half above the control, in often repeated tests (any T/C) and in doses without a T/C. Other doses and runs of a compound stand elsewhere. T/C: endpoint of the treated group in % of that of the vehicle group. Some doses have a count of surviving animals in place of a T/C: the source holds a T/C of zero for them, seemingly a mark for toxic or unscored doses. Survivors were counted at the toxicity check, usually on the fifth day, unless a day is given; later deaths do not show. Schedules are NCI's codes, taken here to give the interval after Q, in days (D) or hours (H), and the number of doses after X. Where survival is the endpoint, the PubChem record calls one and a half times the control and up active, and a quarter to a half above the control has no call in these data; cut-offs in other NCI protocols can differ.

System: L1210 leukemia ip in BDF1 mice, survival T/C
Experiment: NCI In Vivo Anticancer Drug Screen. Data for tumor model L1210 Leukemia (intraperitoneal) in B6D2F1 (BDF1) mice
Conditions: T/C endpoint: mean survival time, higher T/C = longer survival

SMILES | T/C (dose: 200.0 mg/kg/injection, schedule: Q04DX003 (ip), vehicle: Klucel (hydroxypropylcellulose) (HPC)) | survivor count (dose: 400.0 mg/kg/injection, schedule: Q01DX009 (ip), vehicle: Klucel (hydroxypropylcellulose) (HPC)) | T/C (dose: 400.0 mg/kg/injection, schedule: Q04DX003 (ip), vehicle: Klucel (hydroxypropylcellulose) (HPC)) | survivor count (dose: 600.0 mg/kg/injection, schedule: Q04DX003 (ip), vehicle: Klucel (hydroxypropylcellulose) (HPC)) | T/C (dose: 100.0 mg/kg/injection, schedule: Q04DX002 (ip), vehicle: saline with Tween-80)
O=C1OCC/C1=C/CCCC/C=C1\CCOC1=O | 137 % of control | 3 of 6 | 139 % of control | 2 of 6 | 
O=C(C#Cc1ccccc1)N1CCCCC1 |  |  |  |  | 134 % of control
